PubChem BioAssay AID493014 (National Center for Advancing Translational Sciences (NCATS), 2011)
This is one part of the list. Shown are side measurements of this screen, not its main read-out; they come without a call. Most of these compounds were active or inconclusive in the main read-out, so they are no random draw. The note in brackets gives the kind of curve behind each potency; many fits are weak.

Assay: qHTS Assay to Find Inhibitors of Chronic Active B-Cell Receptor Signaling
Settings: ABC-DLBCL IkBa-CBG/CBR reporter, luminescence ratio (green luciferase fused to IkBa over red control in TMD8 lymphoma cells), 4 h; measured here: CBR red luminescence, cell number
In short: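 Concentration-response series (up to 46 uM) were applied to TMD8 dual-reporter cells for 4 h at 37C with doxycycline. Green/red ratio, after filter-overlap correction, defined %Activity; red signal alone was normalised to basal cells and zero luminescence.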

Compound	AC50
CC(C)Sc1nc2ccc(N3C(=O)C4CCCCC4C3=O)cc2s1 (stereo not drawn)	7.31 µM [rising, partial curve]
Cc1ccc(-c2nc3c(c(=O)c4ccccc4n3C)c(=O)n2-c2ccc(F)cc2)cc1	7.94 µM [rising, partial curve, poor fit]
Cn1c(=NC(=O)c2ccc(F)cc2)sc2cc(Br)ccc21	1.26 µM [rising, full curve, poor fit]
CCC(=O)NCCc1nc2cc(NC(=O)COc3ccccc3)ccc2n1C	22.4 µM [falling, partial curve]
CCCCOC(=O)Nc1ccccc1C(=O)N1CCCC1	32.6 µM [rising, partial curve, poor fit]
CCC1(C)N=C(c2ccc3c(c2)OCO3)CC(c2ccccc2O)N1 (stereo not drawn)	20.6 µM [falling, partial curve]
CSc1ncc(C(=O)Nc2ccc(Cl)cc2)c(C)n1	5.62 µM [falling, partial curve, poor fit]
Nc1cccc2c1C(=O)N(C(=O)c1ccc(S(=O)(=O)N3CCCCCC3)cc1)C2=O	29.1 µM [rising, single point]
Cc1ccc(OCC(=O)N2CCc3ccccc32)c([N+](=O)[O-])n1	15.8 µM [rising, single point]
O=C(COc1ccc(Br)cc1Cl)NNC(=O)c1ccccc1	2.59 µM [rising, full curve, poor fit]
CCOC(=O)c1cnn(-c2nc3sc4c(c3c(=O)[nH]2)CCCC4)c1N	7.08 µM [falling, partial curve]
CN1CCC=C(C(=O)N2c3ccccc3Sc3ccc(Cl)cc32)C1	20 µM [falling, single point]
N=c1oc2ccccc2cc1C(=O)NCc1ccccc1	35.5 µM [falling, single point]
CC(=O)Nc1nccc(-c2cc(-c3ccccc3)no2)n1	8.91 µM [falling, partial curve, poor fit]
COc1ccc(/C=C/C(=O)O)cc1COc1ccccc1C	5.8 µM [falling, single point]
CCOC(=O)c1c(C)[nH]c(NC(=O)NNC(=O)c2ccc(OC)cc2)c1C	14.6 µM [falling, partial curve, poor fit]
CC(=O)c1cccc(NC(=O)c2noc3c2CC(C)CC3)c1 (stereo not drawn)	7.08 µM [rising, partial curve, poor fit]

Copied from the list:
For AC50, CC(=O)Nc1nccc(-c2cc(-c3ccccc3)no2)n1 is listed with 8.91 µM [falling, partial curve, poor fit]
For AC50, Cc1ccc(-c2nc3c(c(=O)c4ccccc4n3C)c(=O)n2-c2ccc(F)cc2)cc1 is listed with 7.94 µM [rising, partial curve, poor fit]

(continued)

Compound	AC50
CCN1CCN(Cc2ccc(NC(=O)CC3Oc4ccc(C)cc4NC3=O)cc2)CC1 (stereo not drawn)	8.2 µM [falling, partial curve, poor fit]
O=C1CN(CC(=O)Nc2cccc(Cl)c2Cl)c2ccccc2N1	28.2 µM [falling, single point]
COc1ccccc1C(=O)Nc1nnc(S(=O)(=O)N(C)Cc2ccccc2)s1	20 µM [rising, single point]
CC(C)(C)NS(=O)(=O)c1ccc(CCC(=O)N2CCCC2)cc1	3.16 µM [rising, full curve, poor fit]
O=C(Nc1ccc(N2CCOCC2)nc1)c1c(F)cccc1F	10 µM [falling, partial curve]
COC(=O)c1cc(=O)n(Cc2cccs2)c(=Nc2ccc(F)cc2)s1	11.2 µM [falling, partial curve, poor fit]
O=c1[nH]c2ccccc2n1CCCOc1ccccc1	0.794 µM [rising, full curve, poor fit]
CSC1=N/C(=C\C=C\c2cccs2)C(=O)S1	1.46 µM [rising, partial curve, poor fit]
CCc1ccc2nc(N(Cc3cccnc3)C(=O)c3cccs3)sc2c1	1.26 µM [falling, full curve]
CN1CCN(S(=O)(=O)c2ccc3c(c2)C(C)(C)C(=O)N3C)CC1	35.5 µM [rising, single point]
Cc1cc(C=C2C(=O)c3ccccc3C2=O)c(C)n1-c1cccc(C(=O)O)c1	35.5 µM [falling, single point]
N=C1C(c2nc3ccccc3[nH]2)=C(O)CN1C1CCCCC1	7.94 µM [rising, partial curve, poor fit]
O=C(c1ccc(Cn2c(=S)[nH]c3ccc(N4CCOCC4)cc3c2=O)cc1)N1CCC(N2CCCCC2)CC1	11.2 µM [falling, partial curve, poor fit]
CC(=NCCCn1ccnc1)C1=C(O)c2ccccc2C1=O	14.1 µM [falling, partial curve, poor fit]
CCCOC(=O)c1ccc(NC(=O)c2ccoc2C)cc1	25.9 µM [falling, single point]
Cc1cccc(CS(=O)(=O)c2ncc(Cl)c(C(=O)NCc3ccc4c(c3)OCO4)n2)c1	35.5 µM [falling, single point]
